Assay results: the supplement of paper PMC6411743
± gives the standard deviation of the averaged measurements. The list shows a part of the results.

Chains of the proteins cited; added tags and fusions are not shown. Lines headed by an entry give the natural chain unless they say otherwise; changes in a name come on top.
UniProt Q9UNM6: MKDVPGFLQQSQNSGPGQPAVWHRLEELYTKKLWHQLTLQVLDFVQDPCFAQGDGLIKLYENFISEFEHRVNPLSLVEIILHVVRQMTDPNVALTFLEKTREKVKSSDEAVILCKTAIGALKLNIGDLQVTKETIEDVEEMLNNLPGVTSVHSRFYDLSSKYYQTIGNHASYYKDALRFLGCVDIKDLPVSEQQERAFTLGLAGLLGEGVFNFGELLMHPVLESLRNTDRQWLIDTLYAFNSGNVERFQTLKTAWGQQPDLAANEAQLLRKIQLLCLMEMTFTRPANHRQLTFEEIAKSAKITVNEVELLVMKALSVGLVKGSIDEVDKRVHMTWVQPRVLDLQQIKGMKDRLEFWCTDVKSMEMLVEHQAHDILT
UniProt Q9Y3I0: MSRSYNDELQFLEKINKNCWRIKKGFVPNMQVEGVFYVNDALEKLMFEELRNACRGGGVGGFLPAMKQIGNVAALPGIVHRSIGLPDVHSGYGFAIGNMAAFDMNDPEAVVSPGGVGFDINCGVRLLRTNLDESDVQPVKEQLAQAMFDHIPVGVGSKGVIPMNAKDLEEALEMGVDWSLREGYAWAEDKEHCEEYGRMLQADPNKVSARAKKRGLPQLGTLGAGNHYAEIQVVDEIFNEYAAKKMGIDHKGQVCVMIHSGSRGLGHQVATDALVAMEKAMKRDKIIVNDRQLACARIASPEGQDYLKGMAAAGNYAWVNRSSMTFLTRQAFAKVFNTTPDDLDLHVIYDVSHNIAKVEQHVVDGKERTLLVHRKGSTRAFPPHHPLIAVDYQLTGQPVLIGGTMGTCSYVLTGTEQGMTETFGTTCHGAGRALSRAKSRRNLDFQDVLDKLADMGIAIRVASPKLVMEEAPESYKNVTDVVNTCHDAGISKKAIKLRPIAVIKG
UniProt Q9Y6I3: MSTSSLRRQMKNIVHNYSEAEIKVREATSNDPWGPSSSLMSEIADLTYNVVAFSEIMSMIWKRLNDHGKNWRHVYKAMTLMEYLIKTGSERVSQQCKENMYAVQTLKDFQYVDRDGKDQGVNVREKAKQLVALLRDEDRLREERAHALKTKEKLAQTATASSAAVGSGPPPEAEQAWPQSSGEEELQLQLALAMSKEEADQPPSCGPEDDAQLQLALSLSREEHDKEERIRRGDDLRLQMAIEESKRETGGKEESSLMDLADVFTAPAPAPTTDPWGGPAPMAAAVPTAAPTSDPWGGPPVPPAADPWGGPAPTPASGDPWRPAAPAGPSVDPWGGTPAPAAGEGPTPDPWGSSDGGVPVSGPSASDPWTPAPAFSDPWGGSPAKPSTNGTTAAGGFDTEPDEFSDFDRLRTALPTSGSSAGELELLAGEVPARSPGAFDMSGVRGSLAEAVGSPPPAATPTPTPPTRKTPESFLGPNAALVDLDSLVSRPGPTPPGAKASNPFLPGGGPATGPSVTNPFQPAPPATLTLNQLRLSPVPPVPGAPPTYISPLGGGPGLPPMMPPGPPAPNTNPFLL
UniProt Q9Y3C6: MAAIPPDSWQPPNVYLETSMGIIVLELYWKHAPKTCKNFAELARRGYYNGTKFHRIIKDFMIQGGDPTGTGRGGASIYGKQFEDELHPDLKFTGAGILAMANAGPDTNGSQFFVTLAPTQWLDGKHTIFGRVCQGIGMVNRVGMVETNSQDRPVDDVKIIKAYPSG
UniProt Q9Y2W2: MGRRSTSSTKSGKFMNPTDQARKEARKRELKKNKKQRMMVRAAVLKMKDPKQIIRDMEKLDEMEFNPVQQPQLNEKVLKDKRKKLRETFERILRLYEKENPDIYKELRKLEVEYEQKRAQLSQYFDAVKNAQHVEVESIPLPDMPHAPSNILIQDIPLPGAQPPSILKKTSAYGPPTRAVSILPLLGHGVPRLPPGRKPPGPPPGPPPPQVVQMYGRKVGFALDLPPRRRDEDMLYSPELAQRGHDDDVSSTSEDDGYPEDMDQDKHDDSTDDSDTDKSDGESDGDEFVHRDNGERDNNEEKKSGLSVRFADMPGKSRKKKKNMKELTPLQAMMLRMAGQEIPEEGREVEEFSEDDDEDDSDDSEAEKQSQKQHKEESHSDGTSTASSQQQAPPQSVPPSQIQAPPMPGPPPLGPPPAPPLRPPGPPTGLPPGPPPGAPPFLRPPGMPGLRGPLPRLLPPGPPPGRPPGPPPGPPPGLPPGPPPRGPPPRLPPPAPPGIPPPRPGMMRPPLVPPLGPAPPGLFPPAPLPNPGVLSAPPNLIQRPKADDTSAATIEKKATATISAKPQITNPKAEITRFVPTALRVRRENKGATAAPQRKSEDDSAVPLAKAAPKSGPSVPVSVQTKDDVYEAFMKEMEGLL
UniProt Q9Y6N5: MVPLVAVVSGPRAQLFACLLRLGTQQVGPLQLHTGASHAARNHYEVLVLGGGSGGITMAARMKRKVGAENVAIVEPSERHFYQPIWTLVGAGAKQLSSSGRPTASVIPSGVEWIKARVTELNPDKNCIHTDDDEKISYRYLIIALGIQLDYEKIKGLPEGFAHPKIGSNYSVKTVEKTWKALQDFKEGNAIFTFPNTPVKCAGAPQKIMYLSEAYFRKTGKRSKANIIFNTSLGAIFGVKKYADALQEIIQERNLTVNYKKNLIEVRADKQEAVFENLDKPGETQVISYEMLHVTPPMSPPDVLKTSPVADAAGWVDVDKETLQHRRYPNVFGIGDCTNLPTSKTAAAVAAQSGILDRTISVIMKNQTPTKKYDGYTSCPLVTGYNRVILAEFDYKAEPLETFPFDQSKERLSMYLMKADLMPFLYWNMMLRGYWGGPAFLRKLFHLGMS
UniProt Q9UPY8, whole entry: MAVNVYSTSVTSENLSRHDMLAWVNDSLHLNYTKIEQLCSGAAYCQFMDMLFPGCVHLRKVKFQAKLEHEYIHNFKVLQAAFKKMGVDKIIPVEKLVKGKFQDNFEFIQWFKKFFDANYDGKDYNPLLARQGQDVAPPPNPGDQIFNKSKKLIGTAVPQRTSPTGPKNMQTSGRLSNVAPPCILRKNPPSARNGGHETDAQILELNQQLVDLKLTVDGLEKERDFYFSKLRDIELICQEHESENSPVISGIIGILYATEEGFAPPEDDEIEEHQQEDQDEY
UniProt Q9Y5X3: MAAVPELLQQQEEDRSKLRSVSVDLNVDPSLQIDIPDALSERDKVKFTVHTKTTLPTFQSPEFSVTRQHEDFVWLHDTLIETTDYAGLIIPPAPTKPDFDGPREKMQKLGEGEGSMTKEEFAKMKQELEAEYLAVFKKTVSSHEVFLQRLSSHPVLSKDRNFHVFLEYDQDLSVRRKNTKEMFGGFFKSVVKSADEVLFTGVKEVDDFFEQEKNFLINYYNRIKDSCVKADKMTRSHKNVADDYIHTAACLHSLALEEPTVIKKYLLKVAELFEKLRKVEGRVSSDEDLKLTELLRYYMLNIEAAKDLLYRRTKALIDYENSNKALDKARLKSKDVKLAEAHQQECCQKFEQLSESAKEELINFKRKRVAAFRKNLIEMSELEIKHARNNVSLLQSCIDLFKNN
UniProt Q9Y6Y0: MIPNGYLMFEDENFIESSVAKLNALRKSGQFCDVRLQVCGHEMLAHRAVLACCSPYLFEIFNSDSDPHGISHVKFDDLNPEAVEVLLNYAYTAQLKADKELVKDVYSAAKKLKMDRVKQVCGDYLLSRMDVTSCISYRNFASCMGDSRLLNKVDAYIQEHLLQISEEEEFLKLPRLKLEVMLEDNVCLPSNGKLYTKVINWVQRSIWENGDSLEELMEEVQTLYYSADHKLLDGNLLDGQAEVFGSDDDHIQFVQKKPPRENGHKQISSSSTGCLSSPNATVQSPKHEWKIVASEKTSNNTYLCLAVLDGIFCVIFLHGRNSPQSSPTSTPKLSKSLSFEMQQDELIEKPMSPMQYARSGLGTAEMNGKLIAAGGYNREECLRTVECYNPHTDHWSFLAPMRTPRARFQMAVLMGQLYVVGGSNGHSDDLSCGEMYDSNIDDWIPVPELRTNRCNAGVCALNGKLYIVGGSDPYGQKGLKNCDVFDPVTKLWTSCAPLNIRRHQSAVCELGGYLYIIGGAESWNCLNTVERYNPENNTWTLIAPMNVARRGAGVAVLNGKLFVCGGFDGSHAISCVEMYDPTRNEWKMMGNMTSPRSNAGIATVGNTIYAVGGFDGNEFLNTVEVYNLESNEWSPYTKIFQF
UniProt Q9Y2Y1: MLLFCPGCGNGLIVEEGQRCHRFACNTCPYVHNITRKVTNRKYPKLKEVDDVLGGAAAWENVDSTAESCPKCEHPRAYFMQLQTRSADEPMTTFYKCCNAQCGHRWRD
UniProt Q9Y679: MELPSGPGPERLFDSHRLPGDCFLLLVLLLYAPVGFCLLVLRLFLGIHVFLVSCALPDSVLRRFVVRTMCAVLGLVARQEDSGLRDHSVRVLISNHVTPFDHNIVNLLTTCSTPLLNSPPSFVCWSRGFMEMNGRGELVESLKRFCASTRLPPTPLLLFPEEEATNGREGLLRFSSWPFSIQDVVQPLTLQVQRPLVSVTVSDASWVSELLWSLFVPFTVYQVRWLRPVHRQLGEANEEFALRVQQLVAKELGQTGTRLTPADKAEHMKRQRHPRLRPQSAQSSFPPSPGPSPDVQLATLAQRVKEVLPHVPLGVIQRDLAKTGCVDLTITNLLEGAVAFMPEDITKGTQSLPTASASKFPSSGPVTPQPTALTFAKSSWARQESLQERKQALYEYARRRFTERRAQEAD
UniProt Q9UNK0: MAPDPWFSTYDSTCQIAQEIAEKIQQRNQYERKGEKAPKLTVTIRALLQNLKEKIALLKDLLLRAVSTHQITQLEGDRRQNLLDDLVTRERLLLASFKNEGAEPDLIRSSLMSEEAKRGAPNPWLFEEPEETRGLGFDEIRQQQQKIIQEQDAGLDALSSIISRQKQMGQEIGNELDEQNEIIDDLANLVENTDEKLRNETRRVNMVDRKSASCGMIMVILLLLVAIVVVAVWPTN
UniProt Q9UMY1: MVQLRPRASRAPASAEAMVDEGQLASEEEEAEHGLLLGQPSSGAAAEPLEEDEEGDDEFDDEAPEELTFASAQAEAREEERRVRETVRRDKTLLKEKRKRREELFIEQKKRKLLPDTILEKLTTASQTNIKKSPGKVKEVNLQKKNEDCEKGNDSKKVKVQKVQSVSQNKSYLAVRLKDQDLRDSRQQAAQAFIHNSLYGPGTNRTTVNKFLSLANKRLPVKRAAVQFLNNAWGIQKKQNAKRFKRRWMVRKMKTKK
UniProt Q9Y230, whole entry: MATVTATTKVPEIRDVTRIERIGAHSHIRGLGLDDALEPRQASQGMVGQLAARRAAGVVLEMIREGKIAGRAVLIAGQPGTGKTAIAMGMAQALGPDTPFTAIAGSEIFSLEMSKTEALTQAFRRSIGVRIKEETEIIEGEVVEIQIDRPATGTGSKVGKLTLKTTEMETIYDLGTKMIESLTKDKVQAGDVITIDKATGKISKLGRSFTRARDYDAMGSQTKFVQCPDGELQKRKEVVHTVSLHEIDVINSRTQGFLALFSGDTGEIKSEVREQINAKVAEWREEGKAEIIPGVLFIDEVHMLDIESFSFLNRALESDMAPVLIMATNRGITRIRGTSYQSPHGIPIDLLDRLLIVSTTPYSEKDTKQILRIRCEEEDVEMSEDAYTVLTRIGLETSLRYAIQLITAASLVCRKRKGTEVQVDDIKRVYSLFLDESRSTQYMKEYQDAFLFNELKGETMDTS
UniProt Q9Y3A2: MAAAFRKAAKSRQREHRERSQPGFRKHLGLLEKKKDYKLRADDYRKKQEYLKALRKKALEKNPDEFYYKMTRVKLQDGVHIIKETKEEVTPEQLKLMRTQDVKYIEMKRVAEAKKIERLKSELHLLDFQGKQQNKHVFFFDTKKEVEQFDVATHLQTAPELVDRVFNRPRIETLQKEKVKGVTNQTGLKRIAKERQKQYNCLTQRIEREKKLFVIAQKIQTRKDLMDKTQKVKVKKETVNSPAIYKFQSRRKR
UniProt Q9Y6J9: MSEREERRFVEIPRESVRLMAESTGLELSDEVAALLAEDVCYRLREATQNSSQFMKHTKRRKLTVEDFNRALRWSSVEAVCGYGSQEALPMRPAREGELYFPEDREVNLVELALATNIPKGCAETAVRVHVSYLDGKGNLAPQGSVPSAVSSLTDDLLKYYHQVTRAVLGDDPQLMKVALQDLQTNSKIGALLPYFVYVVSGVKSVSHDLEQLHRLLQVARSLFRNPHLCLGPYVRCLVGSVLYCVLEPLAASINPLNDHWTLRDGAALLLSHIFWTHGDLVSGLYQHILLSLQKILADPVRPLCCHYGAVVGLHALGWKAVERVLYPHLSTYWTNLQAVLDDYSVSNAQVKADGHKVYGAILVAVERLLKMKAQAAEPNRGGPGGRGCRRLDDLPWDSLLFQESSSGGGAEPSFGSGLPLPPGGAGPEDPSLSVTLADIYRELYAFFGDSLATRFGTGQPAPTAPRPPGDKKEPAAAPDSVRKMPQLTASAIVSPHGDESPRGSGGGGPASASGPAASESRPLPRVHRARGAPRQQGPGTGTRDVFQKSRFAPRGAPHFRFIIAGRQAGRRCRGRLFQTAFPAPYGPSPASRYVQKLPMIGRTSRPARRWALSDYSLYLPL

Compound: Nc1nc2c(ncn2[C@@H]2O[C@H](COP(=O)(O)OP(=O)(O)OP(=O)(O)O)[C@@H](O)[C@H]2O)c(=O)[nH]1 [guanosine triphosphate]
Assay: NP40-soluble protein abundance relative to vehicle (solubility fold change) (ratio); higher = more soluble protein in presence of GTP
Summary of the method: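 Across three independent experiments, values are fold changes against the detergent-processed vehicle for each replicate, based on vsn-normalised intensities. The samples were Jurkat crude lysate treated with eight concentrations (0.1 to 10 mM) for 10 min at room temperature and then 3 min at 37 °C. Lysate was solubilised with 0.8% NP40 and benzonase, ultracentrifuged, and the supernatant analysed by TMT-labelled LC-MS/MS.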

Target	NP40-soluble protein abundance (concentration: 0.1mM)	NP40-soluble protein abundance (concentration: 0.5mM)	NP40-soluble protein abundance (concentration: 1mM)	NP40-soluble protein abundance (concentration: 2mM)	NP40-soluble protein abundance (concentration: 4mM)	NP40-soluble protein abundance (concentration: 6mM)	NP40-soluble protein abundance (concentration: 8mM)	NP40-soluble protein abundance (concentration: 10mM)
PSMD13 (UniProt Q9UNM6)	1.02 ± 0.061	1.02 ± 0.1	0.999 ± 0.11	1.04 ± 0.17	1.04 ± 0.11	1.04 ± 0.17	0.98 ± 0.1	0.957 ± 0.14
UniProt Q9Y3I0	0.964 ± 0.036	0.981 ± 0.038	0.955 ± 0.031	0.948 ± 0.036	0.971 ± 0.026	1 ± 0.034	0.998 ± 0.029	0.983 ± 0.035
VDAC3 (UniProt Q9Y277)	0.95 ± 0.048	0.941 ± 0.034	0.891 ± 0.027	0.8766 ± 0.0075	0.893 ± 0.019	0.861 ± 0.013	0.847 ± 0.068	0.814 ± 0.057
UniProt Q9Y6I3 and related entries	0.905 ± 0.051	0.92 ± 0.064	0.975 ± 0.013	0.93 ± 0.057	0.879 ± 0.034	0.942 ± 0.042	0.948 ± 0.098	1.04 ± 0.017
PPIL1 (UniProt Q9Y3C6)	0.9073 ± 0.0054	0.866 ± 0.044	0.9402 ± 0.0075	0.894 ± 0.029	0.923 ± 0.04	0.917 ± 0.043	0.897 ± 0.075	0.935 ± 0.044
TLN1 (UniProt Q9Y490)	0.951 ± 0.085	0.957 ± 0.077	0.961 ± 0.092	0.921 ± 0.096	0.918 ± 0.085	0.926 ± 0.079	0.949 ± 0.082	0.928 ± 0.093
UniProt Q9Y5T5 and related entries	1.1 ± 0.037	1.1 ± 0.047	1.12 ± 0.033	1.23 ± 0.086	1.34 ± 0.15	1.44 ± 0.14	1.49 ± 0.22	1.58 ± 0.21
WBP11 (UniProt Q9Y2W2)	1.02 ± 0.025	0.993 ± 0.025	1.06 ± 0.061	1.05 ± 0.077	1.06 ± 0.09	1.1 ± 0.085	1.17 ± 0.064	1.18 ± 0.082
UniProt Q9Y6N5	1 ± 0.019	1.02 ± 0.052	0.9346 ± 0.0073	0.954 ± 0.041	0.93 ± 0.015	0.94 ± 0.027	0.898 ± 0.018	0.87 ± 0.047
MAPRE3 (UniProt Q9UPY8)	1.07 ± 0.16	0.926 ± 0.053	1.06 ± 0.1	1.03 ± 0.035	1.12 ± 0.12	1.046 ± 0.0017	1.01 ± 0.032	0.963 ± 0.036
SNX5 (UniProt Q9Y5X3)	1.01 ± 0.022	0.964 ± 0.038	0.962 ± 0.023	0.911 ± 0.05	0.935 ± 0.048	0.916 ± 0.058	0.921 ± 0.033	0.875 ± 0.051
IVNS1ABP (UniProt Q9Y6Y0)	1.08 ± 0.048	1.15 ± 0.14	1.2 ± 0.2	1.26 ± 0.22	1.33 ± 0.24	1.33 ± 0.26	1.33 ± 0.28	1.27 ± 0.26
YTHDF2 (UniProt Q9Y5A9)	0.988 ± 0.042	0.983 ± 0.047	0.98 ± 0.07	0.931 ± 0.049	0.958 ± 0.064	0.95 ± 0.066	0.98 ± 0.07	0.93 ± 0.07
POLR3K (UniProt Q9Y2Y1)	0.875 ± 0.076	0.949 ± 0.082	1.05 ± 0.22	0.915 ± 0.034	0.9123 ± 0.0052	0.959 ± 0.061	0.979 ± 0.12	0.808 ± 0.051
NISCH (UniProt Q9Y2I1)	0.994 ± 0.023	0.981 ± 0.021	0.985 ± 0.019	0.951 ± 0.012	0.94 ± 0.047	0.9379 ± 0.0056	0.921 ± 0.01	0.91 ± 0.022
UniProt Q9Y679 and related entries	0.992 ± 0.057	0.997 ± 0.033	0.948 ± 0.029	0.968 ± 0.01	0.9583 ± 0.0062	0.969 ± 0.019	0.986 ± 0.043	0.979 ± 0.038
RCL1 (UniProt Q9Y2P8)	1.03 ± 0.037	1.07 ± 0.063	0.993 ± 0.032	1.02 ± 0.031	1.02 ± 0.053	1.02 ± 0.012	0.97 ± 0.053	1.01 ± 0.033
STX8 (UniProt Q9UNK0)	0.99 ± 0.041	0.927 ± 0.044	1.01 ± 0.037	1.04 ± 0.031	1.08 ± 0.051	1.06 ± 0.013	1 ± 0.11	1.07 ± 0.071
VPS4A (UniProt Q9UN37)	0.977 ± 0.042	1.06 ± 0.017	1.08 ± 0.027	1.03 ± 0.025	1.02 ± 0.021	1.03 ± 0.037	1.05 ± 0.076	1.03 ± 0.087
NOL7 (UniProt Q9UMY1)	0.935 ± 0.059	0.887 ± 0.052	0.988 ± 0.058	0.952 ± 0.095	0.998 ± 0.096	0.998 ± 0.11	1.04 ± 0.079	1.04 ± 0.08
UniProt Q9Y608 and related entries	0.942 ± 0.037	0.919 ± 0.12	1.1 ± 0.08	1.08 ± 0.08	1.1 ± 0.049	1.07 ± 0.05	1.11 ± 0.028	1.21 ± 0.079
RUVBL2 (UniProt Q9Y230)	1.04 ± 0.025	1.09 ± 0.05	1.08 ± 0.08	1.11 ± 0.11	1.15 ± 0.13	1.15 ± 0.14	1.16 ± 0.14	1.11 ± 0.1
PSAT1 (UniProt Q9Y617)	0.959 ± 0.028	0.966 ± 0.012	0.893 ± 0.028	0.883 ± 0.027	0.858 ± 0.023	0.866 ± 0.024	0.837 ± 0.053	0.822 ± 0.052
UTP11 (UniProt Q9Y3A2)	1.06 ± 0.12	1.08 ± 0.13	1.14 ± 0.047	1.2 ± 0.097	1.32 ± 0.12	1.31 ± 0.11	1.33 ± 0.11	1.51 ± 0.12
TAF6L (UniProt Q9Y6J9)	1.12 ± 0.067	1.18 ± 0.04	1.17 ± 0.18	1.11 ± 0.11	1.21 ± 0.17	1.24 ± 0.17	1.23 ± 0.16	1.25 ± 0.14
NOC2L (UniProt Q9Y3T9)	1.05 ± 0.014	1.04 ± 0.067	0.995 ± 0.022	1.03 ± 0.11	1.11 ± 0.041	1.17 ± 0.041	1.22 ± 0.061	1.32 ± 0.11
C19orf53 (UniProt Q9UNZ5)	1.03 ± 0.15	0.97 ± 0.16	1.05 ± 0.19	1.08 ± 0.26	1.15 ± 0.27	1.38 ± 0.48	1.38 ± 0.27	1.61 ± 0.21

Full records from above. Values in the order: NP40-soluble protein abundance (concentration: 0.1mM)	NP40-soluble protein abundance (concentration: 0.5mM)	NP40-soluble protein abundance (concentration: 1mM)	NP40-soluble protein abundance (concentration: 2mM)	NP40-soluble protein abundance (concentration: 4mM)	NP40-soluble protein abundance (concentration: 6mM)	NP40-soluble protein abundance (concentration: 8mM)	NP40-soluble protein abundance (concentration: 10mM)
TAF6L (UniProt Q9Y6J9) is listed with 1.12 ± 0.067	1.18 ± 0.04	1.17 ± 0.18	1.11 ± 0.11	1.21 ± 0.17	1.24 ± 0.17	1.23 ± 0.16	1.25 ± 0.14
UniProt Q9Y679 and related entries is listed with 0.992 ± 0.057	0.997 ± 0.033	0.948 ± 0.029	0.968 ± 0.01	0.9583 ± 0.0062	0.969 ± 0.019	0.986 ± 0.043	0.979 ± 0.038
